Data taken from publication PMC12431657, “Discovery and mechanistic insights of dibenzoylmethane as a broad spectrum inhibitor of coronavirus” (PLOS Pathogens, 2025).
Counter-ions that a name gives are not always drawn. Like-named read-outs stand apart in the source and are kept apart here. Among all 3,300 compounds or so, about 60 (2%) showed an effect of 50% or more. Some of the results follow. Peptide text beside a SMILES is read from it.

Tested on: HCoV-OC43
Design: species or system RD; HTS, protection from HCoV-OC43 induced cell death, luminescent cell viability (CellCounting-Lite 2.0), inhibition rate
Settings: 24 h post infection, 1 h compound pre-incubation, 10 µM, inhibitor

| SMILES | OC43 Inhibition rate (OC43 Inhibition rate, 24 h) [%] | OC43 Inhibition rate [%] |
| --- | --- | --- |
| CC(C)[C@H](NC(=O)[C@H](CC(=O)O)NC(=O)[C@H](CCCCN)NC(=O)[C@@H](N)CCCN=C(N)N)C(=O)N[C@@H](Cc1ccc(O)cc1)C(=O)O [Thymopentin] (H-RKDVY-OH) | -1 |  |
| C=C1CC[C@@H]2[C@](C)(CO)[C@H](O)CC[C@@]2(C)[C@@H]1C/C=C1/C(=O)OC[C@H]1O [Andrographolide] |  | 1 |
| CN1[C@@H]2CC(O)C[C@H]1[C@@H]1O[C@@H]12 (some centres unmarked) [Scopine] |  | -0.3 |
| OCc1ccccc1O[C@@H]1O[C@H](CO)[C@@H](O)[C@H](O)[C@H]1O [Salicin] |  | 0 |
| COC(=O)C1=CO[C@@H](C)[C@H]2CN3CCc4c([nH]c5ccccc45)[C@@H]3C[C@H]12 [Ajmalicine] |  | -0.1 |
| COc1cccc(CCC(=O)O)c1 [3-(3-Methoxyphenyl)propionic acid] |  | 0.2 |
| COc1cc(O)c(C(=O)/C=C/c2ccc(O)cc2)c(OC)c1 [Flavokawain C] |  | 4.2 |
| COC(=O)[C@@H]1[C@H]2C[C@H]3c4[nH]c5ccccc5c4CCN3C[C@@H]2CC[C@@H]1O [Yohimbine (Hydrochloride)] | -0.8 |  |
| CC[C@H]1C[C@@H]2CN3CCc4c([nH]c5ccccc45)[C@](C(=O)OC)(C2)[C@H]13 [Coronaridine] |  | 2.2 |
| CC(=O)c1ccc(O)c(O)c1 [3',4'-Dihydroxyacetophenone] |  | -3.2 |
| COc1cc([C@H]2OC[C@H]3[C@@H]2CO[C@H]3c2ccc(O)c(OC)c2)ccc1O [Pinoresinol] |  | 1.9 |
| C[C@]12CC[C@H]3[C@@H](CC[C@]4(O)C[C@@H](O)CC[C@]34C=O)[C@@]1(O)CC[C@@H]2C1=CC(=O)OC1 [Strophanthidin] |  | 2.8 |
| C/C1=C\C(=O)c2c(C)coc2C/C(C)=C/CC1 [Furanodienone] |  | 0.5 |
| COc1ccc2nccc(C(=O)O)c2c1 [Quininic acid] |  | 0 |
| CSCC[C@H](NC(=O)[C@H](Cc1ccccc1)NC(=O)[C@H](Cc1cnc[nH]1)NC(=O)CNC(=O)[C@@H](NC(=O)[C@H](C)NC(=O)[C@H](Cc1c[nH]c2ccccc12)NC(=O)[C@H](CCC(N)=O)NC(=O)[C@@H]1CCC(=O)N1)C(C)C)C(N)=O [Litorin] |  | -0.8 |
| CC(C)=CCc1cc2c(=O)cc(-c3ccc(O)cc3)oc2cc1O [Licoflavone A] |  | 32.7 |
| CO[C@@H]1[C@@H](O[C@@H]2O[C@H](C)[C@@H](O[C@H]3C[C@@](C)(O)[C@@H](OC(=O)CC(C)C)[C@H](C)O3)[C@H](N(C)C)[C@H]2O)[C@@H](CC=O)C[C@@H](C)[C@@H](O)/C=C/C=C/C[C@@H](C)OC(=O)C[C@H]1OC(C)=O [Josamycin] |  | 0.3 |
| NC(=O)NCCC[C@H](N)C(=O)O [L-Citrulline] |  | -7.4 |
| O=c1ccc2c(O)cc(O)cc2o1 [5,7-Dihydroxycoumarin] |  | 0.1 |
| O=c1oc2c(O)c(O)cc3c(=O)oc4c(O)c(O)cc1c4c23 [Ellagic acid] |  | -0.6 |
| COn1cc(CC#N)c2ccccc21 [Caulilexin C] |  | -0.3 |

| SMILES | OC43 Inhibition rate (OC43 Inhibition rate, 24 h) [%] | OC43 Inhibition rate [%] |
| --- | --- | --- |
| COc1ccc(/C=C/C(=O)/C=C(O)/C=C/c2ccc(OC)c(OC)c2)cc1OC [Dimethylcurcumin] |  | -1 |
| N[C@@H](Cn1oc(=O)[nH]c1=O)C(=O)O [Quisqualic acid] |  | 0.1 |
| O=C(O[C@@H]1[C@@H](O)[C@H](Oc2cc(O)c(C(=O)CCc3ccccc3)c(O)c2)O[C@@H]2COC(=O)c3cc(O)c(O)c(O)c3-c3c(cc(O)c(O)c3O)C(=O)O[C@@H]12)c1cc(O)c(O)c(O)c1 [Thonningianin A] |  | -0.8 |
| CN1C(=O)CC[C@H]1c1cccnc1 [Cotinine] |  | 0.2 |
| O=c1ccc2nccc3c4ccccc4n1c23 [Canthin-6-one] |  | -0.9 |
| Cc1ccc2[nH]c3ccccc3c2c1 [3-Methylcarbazole] |  | 13.6 |
| NC(N)=NOCC[C@H](N)C(=O)O [L-Canavanine sulfate] |  | 18.1 |
| C=C(C)[C@@H]1CC[C@]2(C(=O)O)CC[C@]3(C)[C@H](CC[C@@H]4[C@@]5(C)CC[C@H](OC(=O)CC(C)(C)C(=O)O)C(C)(C)[C@@H]5CC[C@]43C)[C@@H]12 [Bevirimat] |  | -0.2 |
| O=C(/C=C/c1ccc(O)c(O)c1)O[C@@H]1C[C@](O)(C(=O)O)C[C@@H](OC(=O)/C=C/c2ccc(O)c(O)c2)[C@H]1O [Isochlorogenic acid A] |  | -0.8 |
| CCCCCCCC/C=C\CCCCCCCC(=O)OCC(O)CO (centres unmarked) [Monoolein] |  | 0.1 |
| CC(C)(O)[C@@H]1CC[C@](C)([C@H]2[C@@H](O)C[C@@]3(C)[C@@H]4C[C@H](O)[C@H]5C(C)(C)[C@@H](O[C@@H]6OC[C@@H](O)[C@H](O)[C@H]6O[C@@H]6O[C@H](CO)[C@@H](O)[C@H](O)[C@H]6O)CC[C@@]56C[C@@]46CC[C@]23C)O1 [Astragaloside III] |  | -3.5 |
| CN(C)CC(=O)O [N-Methylsarcosine] |  | -3 |
| CC(=O)CCCC(C)CCCC(C)CCCC(C)C (centres unmarked) [Hexahydrofarnesyl acetone] |  | 3.2 |
| CC(C)(C)c1cc(O)cc(C(C)(C)C)c1 [3,5-Di-tert-butylphenol] |  | 3.7 |
| CC(=O)c1ccc(O)cc1O [2',4'-Dihydroxyacetophenone] |  | -0.1 |
| CCCCCCCC/C=C\CCCCCCCC(N)=O [Oleamide] |  | 11.2 |
| CCC(C(=O)O)C(=O)O [Ethylmalonic acid] |  | -0.2 |
| CC(O)Cn1cnc2c1c(=O)n(C)c(=O)n2C (centres unmarked) [Proxyphylline] |  | 1.7 |
| C[C@@H]1[C@H]2c3cc4c(cc3O[C@@]35OCOC3=CC(=O)[C@H](C[C@H]1C)[C@@H]25)OCO4 [Sauchinone] |  | 41.4 |
| N[C@@H](Cc1c[nH]c2ccccc12)C(=O)O [L-Tryptophan] |  | 0.3 |

Taken from the results shown (2 entries):

| SMILES | OC43 Inhibition rate (OC43 Inhibition rate, 24 h) [%] | OC43 Inhibition rate [%] |
| --- | --- | --- |
| N[C@@H](Cn1oc(=O)[nH]c1=O)C(=O)O [Quisqualic acid] |  | 0.1 |
| O=C(O[C@@H]1[C@@H](O)[C@H](Oc2cc(O)c(C(=O)CCc3ccccc3)c(O)c2)O[C@@H]2COC(=O)c3cc(O)c(O)c(O)c3-c3c(cc(O)c(O)c3O)C(=O)O[C@@H]12)c1cc(O)c(O)c(O)c1 [Thonningianin A] |  | -0.8 |
